Experimental data: the supplement of paper PMC10849652
Some of the results follow.

Amino acid sequences for entries named in this document (tags omitted). A change or cut given only in a name is not applied to a line headed by its entry.
UniProt O15397, whole entry, looked up: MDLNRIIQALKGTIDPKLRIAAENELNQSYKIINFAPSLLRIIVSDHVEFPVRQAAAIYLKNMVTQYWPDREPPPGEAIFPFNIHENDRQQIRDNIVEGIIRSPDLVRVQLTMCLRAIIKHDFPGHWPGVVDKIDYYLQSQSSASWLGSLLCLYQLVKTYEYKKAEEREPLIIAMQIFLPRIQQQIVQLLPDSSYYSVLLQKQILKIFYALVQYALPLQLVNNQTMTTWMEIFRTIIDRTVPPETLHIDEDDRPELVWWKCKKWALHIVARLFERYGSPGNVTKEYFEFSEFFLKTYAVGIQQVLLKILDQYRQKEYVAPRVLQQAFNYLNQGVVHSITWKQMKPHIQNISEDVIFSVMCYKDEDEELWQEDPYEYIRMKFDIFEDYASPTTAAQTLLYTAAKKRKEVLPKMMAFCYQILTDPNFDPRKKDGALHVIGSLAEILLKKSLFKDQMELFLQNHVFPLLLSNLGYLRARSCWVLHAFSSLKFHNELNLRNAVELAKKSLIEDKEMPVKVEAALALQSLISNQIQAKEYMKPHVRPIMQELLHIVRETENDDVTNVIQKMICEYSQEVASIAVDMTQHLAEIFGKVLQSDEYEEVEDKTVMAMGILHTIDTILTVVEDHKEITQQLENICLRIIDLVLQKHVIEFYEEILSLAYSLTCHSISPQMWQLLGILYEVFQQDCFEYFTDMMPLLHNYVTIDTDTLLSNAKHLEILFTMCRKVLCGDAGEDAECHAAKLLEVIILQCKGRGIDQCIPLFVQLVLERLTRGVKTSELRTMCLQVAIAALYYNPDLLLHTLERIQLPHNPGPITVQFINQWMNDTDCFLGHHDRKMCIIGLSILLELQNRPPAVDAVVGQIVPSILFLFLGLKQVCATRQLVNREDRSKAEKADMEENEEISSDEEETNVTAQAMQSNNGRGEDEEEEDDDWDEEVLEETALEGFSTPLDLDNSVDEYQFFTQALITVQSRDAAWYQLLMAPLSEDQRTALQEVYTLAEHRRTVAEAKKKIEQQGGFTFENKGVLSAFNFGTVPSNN
UniProt Q8NC54: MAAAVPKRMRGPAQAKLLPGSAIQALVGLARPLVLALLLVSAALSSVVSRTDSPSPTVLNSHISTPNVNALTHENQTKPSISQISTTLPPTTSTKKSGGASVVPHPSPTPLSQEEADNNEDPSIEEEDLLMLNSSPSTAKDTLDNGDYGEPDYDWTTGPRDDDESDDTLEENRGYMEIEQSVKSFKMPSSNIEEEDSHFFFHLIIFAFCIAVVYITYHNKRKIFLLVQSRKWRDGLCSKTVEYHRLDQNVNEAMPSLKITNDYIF
UniProt Q9H1K1: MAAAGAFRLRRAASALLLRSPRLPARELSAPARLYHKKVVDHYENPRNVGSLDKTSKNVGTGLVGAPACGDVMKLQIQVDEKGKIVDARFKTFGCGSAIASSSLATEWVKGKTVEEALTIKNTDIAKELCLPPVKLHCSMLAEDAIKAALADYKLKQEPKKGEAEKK
UniProt P17535: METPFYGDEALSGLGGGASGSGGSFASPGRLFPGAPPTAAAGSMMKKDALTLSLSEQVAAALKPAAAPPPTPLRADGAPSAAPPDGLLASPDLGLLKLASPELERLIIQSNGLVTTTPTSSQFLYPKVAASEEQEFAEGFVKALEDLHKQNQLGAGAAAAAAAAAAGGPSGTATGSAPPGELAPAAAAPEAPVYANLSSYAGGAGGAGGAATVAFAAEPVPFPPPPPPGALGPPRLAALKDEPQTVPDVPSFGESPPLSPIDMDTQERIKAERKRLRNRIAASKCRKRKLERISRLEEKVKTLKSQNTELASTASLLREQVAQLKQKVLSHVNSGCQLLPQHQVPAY
UniProt Q8TEX9: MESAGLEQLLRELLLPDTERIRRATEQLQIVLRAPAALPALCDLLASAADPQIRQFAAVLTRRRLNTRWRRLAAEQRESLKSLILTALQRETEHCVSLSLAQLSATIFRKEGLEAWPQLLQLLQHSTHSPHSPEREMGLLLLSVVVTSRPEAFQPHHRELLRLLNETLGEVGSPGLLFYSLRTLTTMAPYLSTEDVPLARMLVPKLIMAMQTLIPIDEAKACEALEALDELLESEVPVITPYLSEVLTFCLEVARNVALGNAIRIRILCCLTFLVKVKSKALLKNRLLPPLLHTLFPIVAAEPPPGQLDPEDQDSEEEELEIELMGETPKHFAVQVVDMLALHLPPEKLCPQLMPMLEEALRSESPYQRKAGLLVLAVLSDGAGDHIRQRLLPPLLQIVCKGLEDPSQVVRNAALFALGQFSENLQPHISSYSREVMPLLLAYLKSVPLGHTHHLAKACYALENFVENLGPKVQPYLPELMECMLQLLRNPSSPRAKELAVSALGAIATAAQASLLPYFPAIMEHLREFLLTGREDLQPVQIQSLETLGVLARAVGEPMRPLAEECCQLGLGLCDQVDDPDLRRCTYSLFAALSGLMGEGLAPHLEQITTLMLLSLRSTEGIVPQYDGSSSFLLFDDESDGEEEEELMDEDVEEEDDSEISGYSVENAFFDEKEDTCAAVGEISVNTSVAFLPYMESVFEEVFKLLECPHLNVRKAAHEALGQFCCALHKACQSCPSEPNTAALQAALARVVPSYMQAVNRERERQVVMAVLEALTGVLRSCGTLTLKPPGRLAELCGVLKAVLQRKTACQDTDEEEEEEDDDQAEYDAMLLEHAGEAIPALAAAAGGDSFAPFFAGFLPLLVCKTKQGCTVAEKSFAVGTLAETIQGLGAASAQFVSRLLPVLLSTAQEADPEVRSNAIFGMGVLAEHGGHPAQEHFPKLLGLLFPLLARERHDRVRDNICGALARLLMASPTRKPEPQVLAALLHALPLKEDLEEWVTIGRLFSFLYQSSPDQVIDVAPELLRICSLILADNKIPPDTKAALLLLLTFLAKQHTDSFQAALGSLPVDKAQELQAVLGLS
UniProt O94829: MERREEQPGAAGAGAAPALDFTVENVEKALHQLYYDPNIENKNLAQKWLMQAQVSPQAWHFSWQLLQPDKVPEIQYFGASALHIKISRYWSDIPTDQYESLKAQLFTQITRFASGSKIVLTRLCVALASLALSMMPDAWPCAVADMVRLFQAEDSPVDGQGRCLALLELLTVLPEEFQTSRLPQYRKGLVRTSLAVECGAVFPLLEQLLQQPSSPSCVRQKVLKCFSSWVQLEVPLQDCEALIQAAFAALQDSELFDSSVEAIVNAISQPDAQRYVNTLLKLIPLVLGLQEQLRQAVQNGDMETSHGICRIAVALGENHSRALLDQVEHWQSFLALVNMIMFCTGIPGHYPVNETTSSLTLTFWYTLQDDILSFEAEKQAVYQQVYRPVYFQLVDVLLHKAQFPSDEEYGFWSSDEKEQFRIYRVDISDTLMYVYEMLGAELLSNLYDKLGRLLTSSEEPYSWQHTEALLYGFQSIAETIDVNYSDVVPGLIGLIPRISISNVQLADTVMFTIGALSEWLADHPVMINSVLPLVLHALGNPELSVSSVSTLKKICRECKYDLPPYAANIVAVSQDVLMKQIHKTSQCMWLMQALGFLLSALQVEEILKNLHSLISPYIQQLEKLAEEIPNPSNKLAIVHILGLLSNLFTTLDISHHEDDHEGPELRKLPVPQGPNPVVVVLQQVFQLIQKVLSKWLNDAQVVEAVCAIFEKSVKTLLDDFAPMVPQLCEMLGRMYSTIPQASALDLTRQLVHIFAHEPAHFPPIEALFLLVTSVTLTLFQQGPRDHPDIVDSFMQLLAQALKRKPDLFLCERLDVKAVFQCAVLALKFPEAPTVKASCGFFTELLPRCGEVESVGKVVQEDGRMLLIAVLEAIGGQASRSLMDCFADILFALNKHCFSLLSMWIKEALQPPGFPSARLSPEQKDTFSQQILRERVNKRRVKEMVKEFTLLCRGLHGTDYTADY
UniProt Q9H910: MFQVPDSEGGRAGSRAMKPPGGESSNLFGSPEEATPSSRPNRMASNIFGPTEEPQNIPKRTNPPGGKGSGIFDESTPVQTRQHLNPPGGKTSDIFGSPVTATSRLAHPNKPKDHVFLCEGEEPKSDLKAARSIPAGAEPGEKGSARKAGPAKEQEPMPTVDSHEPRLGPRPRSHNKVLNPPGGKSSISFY
UniProt Q14681: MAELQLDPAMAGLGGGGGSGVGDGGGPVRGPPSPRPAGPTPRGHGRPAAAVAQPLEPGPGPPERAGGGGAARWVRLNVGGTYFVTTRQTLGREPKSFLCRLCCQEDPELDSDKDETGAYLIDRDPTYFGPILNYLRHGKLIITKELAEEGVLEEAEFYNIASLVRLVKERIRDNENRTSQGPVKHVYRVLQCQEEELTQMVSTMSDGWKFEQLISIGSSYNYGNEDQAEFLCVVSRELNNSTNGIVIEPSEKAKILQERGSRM
UniProt O95251, whole entry, looked up: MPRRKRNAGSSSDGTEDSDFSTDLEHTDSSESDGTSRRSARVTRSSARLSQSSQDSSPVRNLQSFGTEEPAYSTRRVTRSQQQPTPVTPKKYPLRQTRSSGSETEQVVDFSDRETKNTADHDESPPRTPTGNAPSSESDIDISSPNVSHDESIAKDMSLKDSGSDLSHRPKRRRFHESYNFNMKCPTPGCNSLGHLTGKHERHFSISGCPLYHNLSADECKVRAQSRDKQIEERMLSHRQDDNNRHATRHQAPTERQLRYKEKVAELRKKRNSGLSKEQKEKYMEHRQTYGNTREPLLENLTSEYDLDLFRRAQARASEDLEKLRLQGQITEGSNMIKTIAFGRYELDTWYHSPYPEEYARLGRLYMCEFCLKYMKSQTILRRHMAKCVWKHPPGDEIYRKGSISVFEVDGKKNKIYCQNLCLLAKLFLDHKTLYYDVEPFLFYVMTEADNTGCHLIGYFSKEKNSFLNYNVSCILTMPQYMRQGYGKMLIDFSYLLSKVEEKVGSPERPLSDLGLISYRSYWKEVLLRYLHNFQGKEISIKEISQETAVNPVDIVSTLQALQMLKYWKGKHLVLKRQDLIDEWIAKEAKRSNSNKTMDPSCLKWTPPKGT
UniProt Q13303: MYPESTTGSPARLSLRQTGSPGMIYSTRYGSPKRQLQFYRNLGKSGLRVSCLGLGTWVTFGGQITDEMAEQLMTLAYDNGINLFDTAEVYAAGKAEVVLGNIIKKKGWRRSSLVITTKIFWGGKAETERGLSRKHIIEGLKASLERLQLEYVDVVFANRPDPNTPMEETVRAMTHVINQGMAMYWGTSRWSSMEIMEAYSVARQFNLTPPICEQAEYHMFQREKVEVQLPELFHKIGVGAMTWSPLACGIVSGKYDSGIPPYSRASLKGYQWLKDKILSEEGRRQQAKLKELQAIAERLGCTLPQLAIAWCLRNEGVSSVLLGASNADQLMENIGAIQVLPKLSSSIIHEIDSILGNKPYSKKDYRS
UniProt Q9Y2K7: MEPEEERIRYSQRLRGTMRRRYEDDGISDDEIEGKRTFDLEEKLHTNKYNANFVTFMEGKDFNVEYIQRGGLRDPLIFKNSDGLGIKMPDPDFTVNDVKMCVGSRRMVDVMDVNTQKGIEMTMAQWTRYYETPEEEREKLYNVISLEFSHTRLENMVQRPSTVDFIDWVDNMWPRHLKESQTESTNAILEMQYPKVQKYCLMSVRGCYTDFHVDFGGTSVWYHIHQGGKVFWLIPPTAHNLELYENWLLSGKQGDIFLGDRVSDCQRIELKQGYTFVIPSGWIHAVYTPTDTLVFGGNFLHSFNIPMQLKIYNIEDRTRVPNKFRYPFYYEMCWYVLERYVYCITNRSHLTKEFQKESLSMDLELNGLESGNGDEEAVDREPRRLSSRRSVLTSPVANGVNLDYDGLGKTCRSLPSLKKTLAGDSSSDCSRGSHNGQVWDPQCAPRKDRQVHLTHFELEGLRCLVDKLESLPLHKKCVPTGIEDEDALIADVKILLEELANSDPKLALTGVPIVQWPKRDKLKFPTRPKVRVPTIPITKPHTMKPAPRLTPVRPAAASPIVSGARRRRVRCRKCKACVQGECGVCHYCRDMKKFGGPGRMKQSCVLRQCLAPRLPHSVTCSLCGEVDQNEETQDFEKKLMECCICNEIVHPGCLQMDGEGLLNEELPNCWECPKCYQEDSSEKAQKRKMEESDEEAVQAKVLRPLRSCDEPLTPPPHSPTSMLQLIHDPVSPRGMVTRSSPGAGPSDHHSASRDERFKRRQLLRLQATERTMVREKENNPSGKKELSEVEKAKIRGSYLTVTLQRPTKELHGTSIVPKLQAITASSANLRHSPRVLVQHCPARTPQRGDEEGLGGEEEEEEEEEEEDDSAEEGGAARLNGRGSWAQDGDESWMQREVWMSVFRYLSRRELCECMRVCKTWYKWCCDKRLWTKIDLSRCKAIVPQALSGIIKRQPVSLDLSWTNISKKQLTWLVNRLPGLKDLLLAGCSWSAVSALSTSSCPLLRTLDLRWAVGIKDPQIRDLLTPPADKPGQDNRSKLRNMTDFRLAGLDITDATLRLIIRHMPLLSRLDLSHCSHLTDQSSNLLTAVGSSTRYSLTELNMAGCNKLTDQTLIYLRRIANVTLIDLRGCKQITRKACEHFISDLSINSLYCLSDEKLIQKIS
UniProt O76095: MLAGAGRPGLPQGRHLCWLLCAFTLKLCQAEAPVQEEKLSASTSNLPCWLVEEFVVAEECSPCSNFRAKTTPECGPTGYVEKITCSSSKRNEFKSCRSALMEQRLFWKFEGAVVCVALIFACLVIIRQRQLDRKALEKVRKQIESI

How the values were obtained:
Assay in all cases: log2 fold change, soluble protein after heating vs DMSO (PISA); higher = thermal stabilisation; K562 lysate, 10 uM; active = over 0.2 and 3.5 SD of the protein, either way, in both replicates (recomputed)
[1] = compound: CCCS(=O)(=O)Nc1ccc(F)c(C(=O)c2c[nH]c3ncc(-c4ccc(Cl)cc4)cc23)c1F [vemurafenib]
How it was run: (§1)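 Soluble protein was defined as the supernatant remaining after 21,000xg for 90 min, following pooling of heated aliquots and adjustment to 0.5% NP-40 at 4°C. Before that, crude K562 extract at 1 mg/mL protein in PBS pH 7.4 with 1 mM MgCl2 was treated with 10 μM compound for 30 min and heated for 3 min across 48°C-58°C. Quantification used TMTpro 16plex LC-MS/MS with channel sums equalised, and values are log-two fold changes in thermal stability relative to solvent controls from duplicates.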

[2] = compound: CCCS(=O)(=O)Nc1ccc(F)c(C(=O)c2c[nH]c3ncc(Cl)cc23)c1F
How it was run: as §1

[3] = compound: CCN(CCCOc1ccc2c(Nc3cc(CC(=O)Nc4cccc(F)c4)[nH]n3)ncnc2c1)CCOP(=O)(O)O [barasertib]
How it was run: as §1

[4] = compound: CC[C@@H]1C(=O)N(C)c2cnc(Nc3ccc(C(=O)NC4CCN(C)CC4)cc3OC)nc2N1C1CCCC1
How it was run: as §1

[5] = compound: CC[C@@H]1C(=O)N(C)c2cnc(Nc3ccc(C(=O)N[C@H]4CC[C@H](N5CCN(CC6CC6)CC5)CC4)cc3OC)nc2N1C(C)C [volasertib]
How it was run: as §1

[6] = compound: CCn1c(C(=O)N(C2CC2)C2CC2)cc2c3c(ncn3C)c(Nc3cc(C)n(C)n3)nc21
How it was run: as §1

[7] = compound: CCn1cc(-c2ccnc3[nH]c(-c4cccc(CN(C)C)c4)cc23)c(-c2ccc(NC(=O)N(C)C)cc2)n1
How it was run: as §1

[8] = compound: CN1CCC(CNc2ccc3ncc(-c4cccc(OC(F)(F)F)c4)n3n2)CC1
How it was run: as §1

[9] = compound: CN1CCN(CCOc2cc(OC3CCOCC3)c3c(Nc4c(Cl)ccc5c4OCO5)ncnc3c2)CC1 [saracatinib]
How it was run: as §1

[10] = compound: CN1CCN(c2nc(C3=C(c4c[nH]c5ccccc45)C(=O)NC3=O)c3ccccc3n2)CC1 [sotrastaurin]
How it was run: as §1

Measured: log2 fold change

IPO8 (UniProt O15397)
inactive: [1] 0.014 | [2] 0.031 | [3] 0.04 | [4] 0.012 | [5] -0.048 | [6] 0.05 | [7] -0.021 | [8] -0.033 | [9] 0.004 | [10] 0.026

IRF2BP1 (UniProt Q8IU81)
inactive: [1] 0.015 | [2] 0.023 | [3] -0.003 | [4] 0.026 | [5] -0.088 | [6] 0.014 | [7] 0.037 | [8] -0.06 | [9] 0 | [10] 0.01

KAZN (UniProt Q674X7)
inactive: [1] 0.047 | [2] -0.012 | [3] 0 | [4] 0.002 | [5] -0.008 | [6] -0.081 | [7] -0.044 | [8] 0.112 | [9] 0.016 | [10] -0.023

IQSEC2 (UniProt Q5JU85)
inactive: [1] 0.074 | [2] 0.022 | [3] 0.086 | [4] 0.057 | [5] -0.044 | [6] 0.033 | [7] 0.011 | [8] 0.063 | [9] 0.009 | [10] 0.068

ITPK1 (UniProt Q13572)
inactive: [1] 0.011 | [2] 0.012 | [3] -0.048 | [4] 0.038 | [5] -0.135 | [6] 0.035 | [7] -0.084 | [8] -0.037 | [9] 0.066 | [10] -0.016

ITFG2 (UniProt Q969R8)
inactive: [1] 0.154 | [2] 0.012 | [3] 0.031 | [4] -0.129 | [5] -0.043 | [6] -0.026 | [7] -0.021 | [8] 0.024 | [9] -0.001 | [10] 0.025

KCT2 (UniProt Q8NC54)
inactive: [1] 0.046 | [2] 0.023 | [3] 0.127 | [4] 0.054 | [5] -0.001 | [6] -0.038 | [8] 0.153 | [9] 0.089 | [10] 0.038
active: [7] -0.374

INTS5 (UniProt Q6P9B9)
inactive: [1] 0.052 | [2] -0.167 | [3] 0.044 | [4] 0.042 | [5] 0.223 | [6] 0.023 | [7] 0.029 | [8] -0.072 | [9] 0.069 | [10] -0.092

ISCU (UniProt Q9H1K1)
inactive: [1] -0.032 | [2] 0.016 | [3] 0.127 | [4] -0.002 | [5] 0.023 | [6] -0.059 | [7] 0.054 | [8] -0.023 | [9] -0.012 | [10] -0.014

JUND (UniProt P17535)
inactive: [1] 0.001 | [2] 0.038 | [3] 0.016 | [4] 0.131 | [5] 0.032 | [6] 0.048 | [7] -0.296 | [8] 0.172 | [9] 0.01 | [10] -0.013

ITFG1 (UniProt Q8TB96)
inactive: [1] 0.015 | [2] -0.009 | [3] 0.06 | [4] 0.103 | [5] -0.047 | [6] 0.006 | [7] -0.075 | [8] 0.11 | [9] 0.042 | [10] -0.006

IPO4 isoform 2 (UniProt Q8TEX9)
inactive: [1] 0.033 | [2] 0.026 | [3] 0.008 | [4] 0.004 | [5] -0.018 | [6] 0.009 | [7] -0.117 | [8] 0.038 | [9] -0.016 | [10] 0.018

KBTBD8 (UniProt Q8NFY9)
inactive: [1] 0.042 | [2] 0.017 | [3] 0.091 | [4] -0.006 | [5] -0.015 | [6] -0.03 | [7] 0.133 | [8] -0.03 | [9] 0.008 | [10] 0.038

KDELR1 (UniProt P24390)
inactive: [1] 0.038 | [2] -0.014 | [3] -0.072 | [4] 0.09 | [5] 0.135 | [6] -0.024 | [7] -0.203 | [8] 0.042 | [9] 0.047 | [10] 0.084

INTS14 (UniProt Q96SY0)
inactive: [1] -0.046 | [2] 0.034 | [3] -0.021 | [4] 0.019 | [5] -0.013 | [6] -0.017 | [7] -0.071 | [8] 0.008 | [9] -0.019 | [10] 0.001

Fetched one by one from the list above (two):
KBTBD8 (UniProt Q8NFY9)
inactive: [1] 0.042 | [2] 0.017 | [3] 0.091 | [4] -0.006 | [5] -0.015 | [6] -0.03 | [7] 0.133 | [8] -0.03 | [9] 0.008 | [10] 0.038

ITFG1 (UniProt Q8TB96)
inactive: [1] 0.015 | [2] -0.009 | [3] 0.06 | [4] 0.103 | [5] -0.047 | [6] 0.006 | [7] -0.075 | [8] 0.11 | [9] 0.042 | [10] -0.006

Next results

KDM3B (UniProt Q7LBC6)
inactive: [1] -0.004 | [2] 0.037 | [3] 0.026 | [4] 0.013 | [5] -0.035 | [6] 0.002 | [7] -0.072 | [8] 0.056 | [9] 0.026 | [10] -0.013

ITPKA (UniProt P23677)
inactive: [1] -0.007 | [2] 0.019 | [3] 0.041 | [4] -0.105 | [5] -0.065 | [6] -0.03 | [7] 0 | [8] 0.054 | [9] 0.013 | [10] -0.045

IPO13 (UniProt O94829)
inactive: [1] -0.003 | [2] 0.012 | [3] 0.068 | [4] -0.004 | [5] -0.074 | [6] -0.003 | [7] 0.047 | [8] -0.064 | [9] 0.045 | [10] 0.048

KBTBD7 (UniProt Q8WVZ9)
inactive: [1] 0.043 | [2] -0.081 | [3] 0.064 | [4] -0.012 | [5] 0.096 | [6] 0.031 | [9] 0.051 | [10] 0.091

KCNK5 (UniProt O95279)
inactive: [1] -0.095 | [2] 0.134 | [3] 0.023 | [5] -0.038 | [7] 0.272 | [8] 0.05 | [9] 0.102 | [10] -0.055

JPT2 isoform 3 (UniProt Q9H910)
inactive: [1] 0.03 | [2] 0.002 | [3] 0.002 | [4] 0.031 | [5] 0.03 | [6] -0.02 | [7] 0.015 | [8] 0.011 | [9] 0 | [10] -0.001

IRF2BPL (UniProt Q9H1B7)
inactive: [1] -0.039 | [2] 0.026 | [3] 0.024 | [4] 0.04 | [5] 0.001 | [6] 0.022 | [7] -0.195 | [8] 0.111 | [9] 0.025 | [10] -0.005

IPP (UniProt Q9Y573)
inactive: [1] -0.102 | [2] 0.056 | [4] 0.169 | [5] -0.162 | [6] 0.006 | [7] 0.057 | [8] -0.014 | [9] -0.035

KCTD2 (UniProt Q14681)
inactive: [1] 0.083 | [2] 0.152 | [3] -0.03 | [4] -0.051 | [5] -0.26 | [7] 0.024 | [8] 0.1 | [9] -0.086 | [10] 0.008

KAT7 (UniProt O95251)
inactive: [1] 0.062 | [2] 0.024 | [3] 0.084 | [4] 0.022 | [5] 0.013 | [6] -0.132 | [7] -0.285 | [8] 0.073 | [9] 0.095 | [10] -0.014

IQUB (UniProt Q8NA54)
inactive: [1] -0.307 | [2] 0.083 | [3] 0.064 | [5] 0.006 | [7] 0.068 | [8] -0.051

KCNAB2 (UniProt Q13303)
inactive: [1] 0.036 | [2] 0.018 | [3] -0.022 | [4] -0.07 | [5] -0.001 | [6] 0.007 | [7] -0.101 | [8] 0.067 | [9] -0.01 | [10] 0.042

KDM2A (UniProt Q9Y2K7)
inactive: [1] 0.069 | [3] 0.154 | [4] 0 | [6] 0.151 | [7] -0.102 | [8] -0.034 | [9] -0.032

JTB (UniProt O76095)
inactive: [1] -0.324 | [2] -0.067 | [3] -0.045 | [4] 0.092 | [5] 0.062 | [6] 0.025 | [9] 0.022 | [10] 0.072
